Among all 330,000 compounds or so, about 1,000 (0.3%) were called active. Inconclusive results, whose numbers are uncertain, are shown with a selection of clear calls. Calls come from the whole dose curve; as a rule, active = well fitted inhibition curve with a large enough effect; inconclusive = small, poorly fitted or top-dose-only effect; inactive = no such curve, though single readings can be large or run the other way; tested in mouse RAW 264.7 cells. Potencies of inconclusive entries are doubtful fits and often do not repeat.
assay: qHTS for Inhibitors of Cell Surface uPA Generation; settings: cell surface uPA generation assay; series mostly up to 38.3 µM; activity change, negative = inhibition: at the top concentration; note: nearly all actives have a fitted effect of over 55% in size
Method in brief: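 ATP-Lite luminescence in RAW 264.7 cells after 24 h of exposure to compound, tested up to 38.3 uM final in 1:5 steps. Raised ATP reflects inhibition of uPA-dependent LF delivery to the cytoplasm.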
% is set by controls: 0 for no effect and ±100 for the full control effect; potency is the fitted concentration of half-maximal effect.

Compound	Potency	activity change, negative = inhibition
C=CCNC(=O)C(=O)NCCOc1ccccc1Cl	inconclusive: 14.1 µM [inhibitor, single point]	–
COC(=O)c1cn(C(=O)c2ccc(OC)c(OC)c2)c2ccccc12	inconclusive: 12.6 µM [inhibitor, single point]	–
COC(=O)c1cc(C)nc2c1c(C)nn2-c1ccccc1	–	inactive: 0.723%
C=C(C)C(=O)Nc1cccc(C2=NOC3(C2)C[C@@H](C(N)=O)N(C(=O)C2(C)CC2)C3)c1 (stereo partly specified)	–	inactive: 5.28%
CC[n+]1ccc(/C=C/c2c[nH]c3ccccc23)cc1	inconclusive: 20 µM [inhibitor, single point]	–
COc1ccccc1NS(=O)(=O)c1cccc(C(=O)N/N=C/c2ccc([N+](=O)[O-])o2)c1	inconclusive: 6.31 µM [inhibitor, partial curve, poor fit]	–
O=C(N/N=C/c1cc([N+](=O)[O-])cc([N+](=O)[O-])c1O)C(O)(c1ccccc1)c1ccccc1	–	inactive: 0.216%
CSc1nccc(NC(=O)c2ccc(C(C)(C)C)cc2)n1	inconclusive: 3.55 µM [inhibitor, single point]	–
COc1cccc(C(c2c(NC(=O)c3ccco3)sc(C)c2C)N2CCOCC2)c1 (stereo unspecified)	–	inactive: -13.7%
CC1CCN(CCOCCSc2ccc(Cl)cc2)CC1	inconclusive: 11.2 µM [inhibitor, partial curve, poor fit]	–
Cc1ccccc1S(=O)(=O)Cc1ccc(C(=O)NC2CC2)o1	inconclusive: 12.6 µM [inhibitor, single point]	–
CCN(CC)S(=O)(=O)c1cc(NC(=O)COC(=O)c2c(C)noc2C)ccc1C	inconclusive: 1.12 µM [inhibitor, full curve]	–
Cc1ccc(C(=O)Nc2ccn(C)n2)cc1	inconclusive: 7.94 µM [inhibitor, partial curve, poor fit]	–
O=C(OCc1cccc(Cl)c1)c1cc([N+](=O)[O-])ccc1N1CCOCC1	inconclusive: 8.91 µM [inhibitor, single point]	–
Cc1ccc(-c2csc(NC(=O)c3c(C)noc3C)n2)cc1C	inconclusive: 11.2 µM [inhibitor, partial curve, poor fit]	–
CN(CC(=O)Nc1ccccc1C(F)(F)F)C(=O)c1cc2c(s1)CCCCC2	–	inactive: 1.39%
COCCn1c(=NC(=O)CCS(=O)(=O)c2ccccc2)sc2cc(C(=O)OC)ccc21	–	inactive: 4.86%
S=C(Nc1cccc2ccccc12)Nc1cccc2ccccc12	–	inactive: -5.26%
c1ccc(CCCc2nc(-c3cccnc3)no2)cc1	–	inactive: 1.98%
N#C/C(=N\Nc1ccc(F)cc1)C(=N)N1CCCCC1	inconclusive: 10 µM [inhibitor, single point]	–
Cc1cc(OCC(=O)N(C)C2CCCCC2)cc(C)c1Cl	–	inactive: 3.53%
Cc1ccc(C)c(/C(O)=C2/C(=O)C(=O)N(CCN3CCOCC3)C2c2ccco2)c1 (stereo unspecified)	–	inactive: 5.17%
COc1ccc(-c2nn(-c3ccccc3)cc2C(=O)NC2CC2)cc1	inconclusive: 7.08 µM [inhibitor, full curve, poor fit]	–

Compound	Potency	activity change, negative = inhibition
CCOc1cccc(N)c1	–	inactive: -7.12%
Cc1noc(C)c1CSc1ncnc2sc(C)c(C)c12	–	inactive: 3.96%
CC[C@]12c3[nH]c4ccc(Cl)cc4c3CCN1C(=O)[C@@H](CC(=O)NC/C=C(\C)CCC=C(C)C)C[C@@H]2C(=O)N1CCN(C(=O)c2ccco2)CC1	inconclusive: 20 µM [inhibitor, single point]	–
Cc1ccc(C2(CCN)CCOC(C(C)C)C2)cc1 (stereo unspecified)	–	inactive: 5.04%
CCOCCCNc1nc2c(C)cccn2c(=O)c1/C=C1\SC(=S)N(C(C)CC)C1=O (stereo unspecified)	–	inactive: 0.735%
O=C(Nc1cccn(Cc2c(F)cccc2Cl)c1=O)NC1CCCCC1	active: 11.2 µM	–
COc1ccccc1C(=O)Nc1nnc(-c2ccc(F)cc2)s1	–	inactive: -0.91%
COc1ccc(NC(=O)c2cc3ccccn3n2)cc1	active: 4.47 µM	–
Cc1ccc2cc(CN(CCO)Cc3nnnn3Cc3ccc(F)cc3)c(=O)[nH]c2c1	–	inactive: -2.38%
CCOC(=O)C1CCN(S(=O)(=O)C(F)(F)c2nc3ccccc3s2)CC1	inconclusive: 12.6 µM [inhibitor, partial curve, poor fit]	–
Cc1ccc(C)c(N2CCN(CCCNC(=O)Cn3cccc3C(=O)c3ccccc3C)CC2)c1	–	inactive: 4.43%
Cc1ccccc1OC(C)C(=O)Nc1ccc2c(c1)OCCO2 (stereo unspecified)	inconclusive: 5.01 µM [inhibitor, single point]	–
O=C(CCCN1C(=O)/C(=C/c2ccccc2Cl)SC1=S)NCCCN1CCOCC1	inconclusive: 10 µM [inhibitor, partial curve, poor fit]	–
COc1ccc2nc(NC(=O)c3ccoc3C)sc2c1	inconclusive: 5.62 µM [inhibitor, partial curve, poor fit]	–
CC(=O)Nc1cccc(C(=O)Nc2ccccc2C(=O)O)c1	–	inactive: -0.852%
Cc1cc(C(=O)NN=C2CCCCCCC2)c2ccccc2n1	inconclusive: 12.6 µM [inhibitor, single point]	–
COCCn1c(SCC(=O)NC(=O)NC2CCCCC2)nc2ccccc2c1=O	inconclusive: 11.2 µM [inhibitor, partial curve, poor fit]	–
CC1(C)CC(N2CCCC2)=CC(=[N+]2CCCCC2)C1	inconclusive: 0.447 µM [inhibitor, partial curve, poor fit]	–
COc1cccc(-n2c(CN3CCN(c4ccccn4)CC3)nc3ccc([N+](=O)[O-])cc3c2=O)c1	inconclusive: 7.94 µM [inhibitor, single point]	–
Nc1c(C(=O)NCc2ccc3c(c2)OCO3)c2nc3ccccc3nc2n1CCCN1CCOCC1	inconclusive: 4.47 µM [inhibitor, partial curve]	–
COC(=O)C1=C(C)N(Cc2ccccc2)C(=NCc2ccccc2)N[C@H]1c1ccccc1	inconclusive: 10 µM [inhibitor, single point]	–
CCOc1ccc(C(=O)NCC(=O)NNC(=O)c2cc(C)oc2C)cc1OCC	inconclusive: 0.0178 µM [inhibitor, full curve, poor fit]	–
COc1cc(/C=C2\SC(=S)N(CCCCC(=O)O)C2=O)ccc1OS(=O)(=O)c1ccc(C)cc1	inconclusive: 11.2 µM [inhibitor, partial curve, poor fit]	–

3 records picked at random from those above:
Compound	Potency	activity change, negative = inhibition
CCOc1ccc(C(=O)NCC(=O)NNC(=O)c2cc(C)oc2C)cc1OCC	inconclusive: 0.0178 µM [inhibitor, full curve, poor fit]	–
CC[C@]12c3[nH]c4ccc(Cl)cc4c3CCN1C(=O)[C@@H](CC(=O)NC/C=C(\C)CCC=C(C)C)C[C@@H]2C(=O)N1CCN(C(=O)c2ccco2)CC1	inconclusive: 20 µM [inhibitor, single point]	–
O=C(CCCN1C(=O)/C(=C/c2ccccc2Cl)SC1=S)NCCCN1CCOCC1	inconclusive: 10 µM [inhibitor, partial curve, poor fit]	–

— PubChem BioAssay AID540303 (National Center for Advancing Translational Sciences (NCATS), 2011)
